Results as given in patent US8980848B2, “Flavonoid dimers and their use” (The Hong Kong Polytechnic University, priority 2010, dated 2015).
Some entries of the source have several records that differ or are many. This list holds those alone. The source may hold further records. The values listed for one entry differ, and nothing given here explains why; they may come from other doses, times, organisms or constructs than stated.

The chains behind the UniProt entries cited, without tags or fusion partners.
UniProt P08183, whole entry: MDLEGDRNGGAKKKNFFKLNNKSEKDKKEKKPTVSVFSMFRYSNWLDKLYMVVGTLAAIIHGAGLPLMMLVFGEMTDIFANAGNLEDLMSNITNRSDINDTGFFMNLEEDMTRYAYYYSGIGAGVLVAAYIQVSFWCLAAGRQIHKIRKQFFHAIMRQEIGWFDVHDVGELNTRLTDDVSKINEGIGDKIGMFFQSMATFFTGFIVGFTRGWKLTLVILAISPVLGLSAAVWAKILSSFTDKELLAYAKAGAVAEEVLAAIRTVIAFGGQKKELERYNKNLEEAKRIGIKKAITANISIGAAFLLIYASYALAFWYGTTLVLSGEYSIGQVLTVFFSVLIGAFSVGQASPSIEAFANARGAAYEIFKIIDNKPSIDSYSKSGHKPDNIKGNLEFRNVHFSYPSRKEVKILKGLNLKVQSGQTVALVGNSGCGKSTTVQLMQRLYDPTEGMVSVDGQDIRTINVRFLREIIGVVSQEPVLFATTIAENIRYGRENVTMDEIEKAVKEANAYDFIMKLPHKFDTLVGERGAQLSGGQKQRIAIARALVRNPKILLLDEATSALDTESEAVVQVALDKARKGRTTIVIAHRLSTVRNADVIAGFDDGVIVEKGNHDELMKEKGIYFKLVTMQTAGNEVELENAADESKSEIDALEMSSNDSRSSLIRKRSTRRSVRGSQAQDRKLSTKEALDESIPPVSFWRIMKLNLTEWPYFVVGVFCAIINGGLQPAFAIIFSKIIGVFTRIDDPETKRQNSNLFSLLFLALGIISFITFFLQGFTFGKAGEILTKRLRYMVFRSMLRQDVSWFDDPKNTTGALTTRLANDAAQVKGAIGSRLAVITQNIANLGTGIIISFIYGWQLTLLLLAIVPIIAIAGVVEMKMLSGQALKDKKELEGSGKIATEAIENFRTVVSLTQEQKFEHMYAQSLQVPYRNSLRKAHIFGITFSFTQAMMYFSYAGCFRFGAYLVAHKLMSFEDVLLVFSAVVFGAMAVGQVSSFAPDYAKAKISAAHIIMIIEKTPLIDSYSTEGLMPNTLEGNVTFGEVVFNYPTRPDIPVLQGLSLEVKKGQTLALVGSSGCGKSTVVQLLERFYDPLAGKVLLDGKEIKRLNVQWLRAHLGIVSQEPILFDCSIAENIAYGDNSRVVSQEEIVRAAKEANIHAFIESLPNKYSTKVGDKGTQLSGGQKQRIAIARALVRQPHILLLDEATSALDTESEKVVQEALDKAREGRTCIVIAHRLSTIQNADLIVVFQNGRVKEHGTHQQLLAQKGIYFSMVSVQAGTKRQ

Target: Pgp (LCC6MDR cells) (Homo sapiens, UniProt P08183)
Assay: Cell proliferation assay: Pgp-modulating activity, reversal of anticancer drug resistance in LCC6MDR cells
Conditions: RF = (IC50 without modulator)/(IC50 with 1.0 μM modulator), paclitaxel

Question: `CCN(CCOCCOc1ccc(-c2cc(=O)c3ccccc3o2)cc1)CCOCCOc1ccc(-c2cc(=O)c3ccccc3o2)cc1` [Compound 13, 1,13-Bis[4′-(4H-chromen-4-on-2-yl)phenyl]-N-(ethyl)-1,4,10,13-tetraoxa-7-azamidecane] was tested. Which “RF (Relative Fold), cpd at 1 μM” value did it give?
Answer: 95.7 and (95.7)
